Measured data: PubChem BioAssay AID1508597 (Cure First, 2020)
Shown is a random part of the about 2,100 reagents, in one setting of the screen. 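Calls flag viability under 80% in either arm, not effects specific to rucaparib; the reference for percent is not stated.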 Entries without a mark were called inactive. The record does not give: the 100% reference.

Test: 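Knock-downs altering ovarian cancer cell survival with or without PARP inhibitor rucaparib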 (primary screen)
Cells: human ovarian carcinoma lines grown from tumours: OCI-P5x (papillary serous) and OCI-C5x (clear cell)
Reagents: siRNA pool against human genes, 1.25 pmol siRNA per well
Time to read-out: 72 h or 96 h, depending on the cell culture
Treatment: rucaparib 20 µM (about IC30) or vehicle, present until read-out
Rucaparib or vehicle: Rucaparib
Cell line: OCI-C5x (clear cell)
Read-out: 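ATP luminescence measured at 72 or 96 h according to the culture, then normalised and expressed as percent viability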
Direction: viability, normalised: higher = more viable cells remaining
Active means: 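Active when normalised viability falls below 80 percent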
Calls: active = viability under 80%; inactive = viability 80% or more

For PDCD2L (programmed cell death 2 like), technical replicate 1, the entry reads viability, normalised (%) = 55.3 (active).
For PDCD2L (programmed cell death 2 like), technical replicate 2 the deposit lists viability, normalised (%) = 44 (active).
PDCD2L (programmed cell death 2 like), technical replicate 3 showed viability, normalised (%) = 49.4 (active).
NDEL1 (nudE neurodevelopment protein 1 like 1), technical replicate 1 showed viability, normalised (%) = 51.1 (active).
For NDEL1 (nudE neurodevelopment protein 1 like 1), technical replicate 2, the values are viability, normalised (%) = 52.9 (active).
NDEL1 (nudE neurodevelopment protein 1 like 1), technical replicate 3 showed viability, normalised (%) = 37.9 (active).
ITPKB (inositol-trisphosphate 3-kinase B), technical replicate 1 scored viability, normalised (%) = 69.2 (active).
With ITPKB (inositol-trisphosphate 3-kinase B), technical replicate 2 the deposit lists viability, normalised (%) = 56.4 (active).
With ITPKB (inositol-trisphosphate 3-kinase B), technical replicate 3 the deposit lists viability, normalised (%) = 40.8 (active).
MAP4K3 (mitogen-activated protein kinase kinase kinase kinase 3), technical replicate 1 showed viability, normalised (%) = 58.5 (active).
For MAP4K3 (mitogen-activated protein kinase kinase kinase kinase 3), technical replicate 2, the entry reads viability, normalised (%) = 77.5 (active).
For MAP4K3 (mitogen-activated protein kinase kinase kinase kinase 3), technical replicate 3, the entry reads viability, normalised (%) = 64.7 (active).
CASP7 (caspase 7), technical replicate 1 scored viability, normalised (%) = 59.5 (active).
CASP7 (caspase 7), technical replicate 2 scored viability, normalised (%) = 49.5 (active).
For CASP7 (caspase 7), technical replicate 3, the entry reads viability, normalised (%) = 51.9 (active).
ROCK1 (Rho associated coiled-coil containing protein kinase 1), technical replicate 1 gave viability, normalised (%) = 66.2 (active).
For ROCK1 (Rho associated coiled-coil containing protein kinase 1), technical replicate 2, the values are viability, normalised (%) = 48.5 (active).
ROCK1 (Rho associated coiled-coil containing protein kinase 1), technical replicate 3 showed viability, normalised (%) = 61 (active).
For PMVK (phosphomevalonate kinase), technical replicate 1 the deposit lists viability, normalised (%) = 46.1 (active).
PMVK (phosphomevalonate kinase), technical replicate 2 gave viability, normalised (%) = 47.8 (active).
With PMVK (phosphomevalonate kinase), technical replicate 3 the deposit lists viability, normalised (%) = 55.8 (active).

In a second layout: 3 of the entries above
| target gene | technical replicate | viability, normalised (%) |
| --- | --- | --- |
| PDCD2L (programmed cell death 2 like) | 3 | 49.4 (active) |
| NDEL1 (nudE neurodevelopment protein 1 like 1) | 1 | 51.1 (active) |
| NDEL1 (nudE neurodevelopment protein 1 like 1) | 2 | 52.9 (active) |
